# Source: US20090209435A1
# No constants are given. Whether binding was seen depends on the method and setting. Binding seen in cells or lysates may run through a third protein. Some entries that bind do so weakly or less than the wild type.
# Biological target: V5-tagged TRPM4b (human) (UniProt Q8TD43)
# Assay: co-immunoprecipitation from lysates of co-transfected HEK-293 cells with anti-Flag and anti-V5, Western blots probed with both antibodies
substance,measurement,value
Flag-tagged TRPM4b (from UniProt Q8TD43 1-1214),binding,binds
